Results: the supplement of paper PMC12823440, “Inhibitors supercharge kinase turnover through native proteolytic circuits” (Nature, 2025)
Counter-ions that a name gives are not always drawn. This is one part of the list. The calls rarely recur for the same compound in another form.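 In K562 cells expressing nanoluciferase-fused kinases, luminescence was recorded at 4 h intervals between 2 and 18 h, normalized as percent of control with DMSO at 100% and a positive control at 0%. A significant (2 sigma) signal drop marks a time point as decreased. The authors' rule for a hit is not shown and takes in more than the number of time points.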

By UniProt entry, the sequences of proteins in these tests, tags left out. Where a name states a change or a piece, a line headed by the entry shows the natural chain unless it says otherwise.
UniProt Q6PHR2: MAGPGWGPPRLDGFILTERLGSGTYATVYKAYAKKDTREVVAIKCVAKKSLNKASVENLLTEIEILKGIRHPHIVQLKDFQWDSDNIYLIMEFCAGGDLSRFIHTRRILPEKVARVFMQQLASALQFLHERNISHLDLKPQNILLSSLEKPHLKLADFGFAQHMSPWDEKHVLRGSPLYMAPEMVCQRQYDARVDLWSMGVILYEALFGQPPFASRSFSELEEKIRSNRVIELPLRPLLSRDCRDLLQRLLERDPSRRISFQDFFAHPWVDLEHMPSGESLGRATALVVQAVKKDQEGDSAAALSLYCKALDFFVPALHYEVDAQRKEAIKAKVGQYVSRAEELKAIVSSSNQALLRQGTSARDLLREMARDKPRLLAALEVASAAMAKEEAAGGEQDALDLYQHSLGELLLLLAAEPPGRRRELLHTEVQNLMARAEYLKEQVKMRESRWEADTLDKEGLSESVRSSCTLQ

The compounds below were run against ULK3 (UniProt Q6PHR2) (assay: kinase-Nluc reporter destabilization hit call (1 = scored as downregulated) (binary); higher = compound decreases kinase abundance). Details: K562; 2-18 h.

kinase-Nluc reporter destabilization hit call, inactive:
N#Cc1cnc2c(Cl)cc(NCc3cn(CCN4CCCCCC4)nn3)cc2c1Nc1ccc(F)c(Cl)c1 [Cot inhibitor-1] (10 µM) 0, Cc1cc(Nc2cc(N)ncn2)c(=O)n2c1C(=O)NC21CCCCC1 [Tomivosertib] (10 µM) 0, CC(Cc1ccc(O)c(O)c1)C(C)Cc1ccc(O)c(O)c1 (stereo unspecified) [Nordihydroguaiaretic acid] (2.5 µM) 0, CNC(=O)c1ccc2c(C(=Nc3cccc(CN(C)C)c3)c3ccccc3)c(O)[nH]c2c1 [MEK inhibitor] (10 µM) 0, COC(=O)[C@H](CCSC)NC(=O)c1ccc(NC[C@@H](N)CS)cc1-c1ccccc1 [FTI-277 (hydrochloride)] (10 µM) 0, C=CC(=O)Nc1ccc(C(=O)Nc2[nH]nc3c2CN(C(=O)N[C@H](CN(C)C)c2ccccc2)C3(C)C)cc1 (10 µM) 0, CCN(CC)CCCC(C)Nc1nc(C)cc(Nc2ccc3nc(C)cc(N)c3c2)n1 (stereo unspecified) (10 µM) 0, COc1cc(F)ccc1-c1ncnc(Nc2cccc(C[S@](C)(=N)=O)c2)n1 [Atuveciclib] (2.5 µM) 0, O=C(c1cccc(Cl)c1F)N1CCN(Cc2cccc(Nc3nccs3)n2)CC1 (2.5 µM) 0, N#Cc1ccc(-c2cnc3ccc(-c4ccc(C(=O)N5CCOCC5)cc4)cn23)cc1 (10 µM) 0, Cc1ccc(C(=O)NC2CC2)cc1-n1ncc(C(=O)c2cccc(C#N)c2)c1N [Acumapimod] (10 µM) 0
